Read-outs that look alike come from different tables or passages of the source. No constants are given. Whether binding was seen depends on the method and setting. A result given as binding can be weak or reduced; the word gives no strength.
Tests used:
[1] = target: CdpB1 from Haloferax volcanii (Haloferax volcanii) (UniProt D4H036); test: SEC-MALS
[2] = target: CdpB1 from Haloferax volcanii (Haloferax volcanii) (UniProt D4H036); test: SEC-MALS; remark: listed apart in the source

Protein sequences, listed by entry. Tags and fused reporters are not part of them. Lines headed by an entry give the natural chain unless they say otherwise; changes in a name come on top.
UniProt D4H036: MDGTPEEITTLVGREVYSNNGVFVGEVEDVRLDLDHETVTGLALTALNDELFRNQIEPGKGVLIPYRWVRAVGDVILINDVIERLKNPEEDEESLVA
UniProt D4GTJ3: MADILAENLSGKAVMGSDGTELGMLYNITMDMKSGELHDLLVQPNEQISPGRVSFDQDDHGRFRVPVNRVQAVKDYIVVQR

binding [1]: binds
binding [2]: binds
Substance: CdpB2 from Haloferax volcanii (from UniProt D4GTJ3)

Source: article doi:10.1101/2023.03.28.534543
